Data as given in article PMC12402400.
Results are given in words; binding and its absence hold for the method and conditions named. In cells and extracts the contact can be indirect. Some binding calls cover weakened binding; strength is not graded here.

By UniProt entry, the sequences of proteins in these tests, tags left out.
UniProt Q9WTU3: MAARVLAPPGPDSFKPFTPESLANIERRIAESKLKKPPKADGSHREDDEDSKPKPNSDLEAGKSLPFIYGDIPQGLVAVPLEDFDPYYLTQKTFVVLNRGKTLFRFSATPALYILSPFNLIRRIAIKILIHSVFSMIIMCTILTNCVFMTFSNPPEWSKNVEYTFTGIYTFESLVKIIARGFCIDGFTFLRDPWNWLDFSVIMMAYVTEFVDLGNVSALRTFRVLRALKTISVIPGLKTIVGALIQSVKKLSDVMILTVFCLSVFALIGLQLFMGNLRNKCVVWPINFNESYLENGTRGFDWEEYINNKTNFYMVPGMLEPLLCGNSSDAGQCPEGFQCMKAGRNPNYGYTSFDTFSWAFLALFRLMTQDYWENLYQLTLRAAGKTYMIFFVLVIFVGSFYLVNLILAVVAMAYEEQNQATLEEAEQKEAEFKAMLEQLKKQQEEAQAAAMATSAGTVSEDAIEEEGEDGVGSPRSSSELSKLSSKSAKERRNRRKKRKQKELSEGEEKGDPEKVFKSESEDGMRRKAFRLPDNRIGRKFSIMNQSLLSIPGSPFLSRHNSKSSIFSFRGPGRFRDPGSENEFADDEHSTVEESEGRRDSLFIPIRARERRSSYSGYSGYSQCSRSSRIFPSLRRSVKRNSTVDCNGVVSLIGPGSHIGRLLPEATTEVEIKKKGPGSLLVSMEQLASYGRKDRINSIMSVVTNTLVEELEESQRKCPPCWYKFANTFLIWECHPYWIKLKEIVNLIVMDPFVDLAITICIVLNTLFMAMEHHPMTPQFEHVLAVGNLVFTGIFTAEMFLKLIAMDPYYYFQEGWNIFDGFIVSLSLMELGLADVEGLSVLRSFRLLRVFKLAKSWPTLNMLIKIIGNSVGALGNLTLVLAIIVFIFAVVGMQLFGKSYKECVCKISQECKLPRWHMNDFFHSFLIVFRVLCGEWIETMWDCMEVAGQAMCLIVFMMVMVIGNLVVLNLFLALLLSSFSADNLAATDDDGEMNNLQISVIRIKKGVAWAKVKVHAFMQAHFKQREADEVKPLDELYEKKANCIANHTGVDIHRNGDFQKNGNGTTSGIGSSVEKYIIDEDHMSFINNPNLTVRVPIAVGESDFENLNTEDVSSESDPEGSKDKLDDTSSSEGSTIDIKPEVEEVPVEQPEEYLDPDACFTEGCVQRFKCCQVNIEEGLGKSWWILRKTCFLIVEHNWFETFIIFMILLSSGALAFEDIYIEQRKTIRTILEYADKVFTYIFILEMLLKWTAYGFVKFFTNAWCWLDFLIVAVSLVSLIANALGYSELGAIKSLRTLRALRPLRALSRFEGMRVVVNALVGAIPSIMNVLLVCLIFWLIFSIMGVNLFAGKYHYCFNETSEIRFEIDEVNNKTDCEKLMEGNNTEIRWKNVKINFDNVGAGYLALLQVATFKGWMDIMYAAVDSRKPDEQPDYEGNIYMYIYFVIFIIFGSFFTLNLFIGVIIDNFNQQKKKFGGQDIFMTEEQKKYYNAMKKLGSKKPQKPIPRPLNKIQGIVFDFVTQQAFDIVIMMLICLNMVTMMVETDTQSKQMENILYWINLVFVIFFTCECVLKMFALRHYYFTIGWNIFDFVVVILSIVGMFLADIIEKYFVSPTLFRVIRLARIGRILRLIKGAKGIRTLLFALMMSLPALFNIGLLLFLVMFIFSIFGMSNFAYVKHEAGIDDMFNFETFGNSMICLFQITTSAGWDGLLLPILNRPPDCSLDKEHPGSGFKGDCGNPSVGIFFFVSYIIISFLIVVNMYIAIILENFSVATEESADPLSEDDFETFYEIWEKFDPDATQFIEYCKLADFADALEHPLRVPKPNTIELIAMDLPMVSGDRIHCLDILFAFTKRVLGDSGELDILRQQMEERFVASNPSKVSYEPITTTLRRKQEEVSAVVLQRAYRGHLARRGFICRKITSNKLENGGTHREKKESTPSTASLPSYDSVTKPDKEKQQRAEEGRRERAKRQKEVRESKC

Biological target: Voltage-gated sodium channel Nav1.6 (UniProt Q9WTU3)
Assay: co-IP; from total protein lysates with anti-Nav1.6 or anti-Tn-R antibodies, then immunoblotting with the corresponding antibodies

binding: binds
B1: Tenascin-R (protein, UniProt Q8BYI9 32-1358)
chain: RLEVTTERAQRQTVEEEGGASSYNTSSKEQPMVFNHVYNINVPLESLCSSGLEASAEQDMSAEDDTLAEYIGQTSDHESQVTFTHKINLPKKACPCASSSQVLQELLSRIEMLEREVSLLRDQCNTNCCQESAATGQLDYVPHCSGHGNFSFESCGCICNEGWFGKNCSEPYCPLGCSSRGVCVDGQCICDSEYSGDDCSELRCPTDCSSRGLCVDGECVCEEPYTGEDCRELRCPGDCSGKGQCANGTCLCQEGYAGEDCSQRRCLNACSGRGHCQEGLCICEEGYQGPDCSAVAPPEDLRVAGISDRSIELEWDGPMAVTEYVISYQPTALGGLQLQQRVPGDWSGVTIMELEPGLTYNISVYAVISNILSLPITAKVATHLSTPQGLQFKTITETTVEVQWEPFSFSFDGWEISFIPKNNEGGVIAQLPSDVTSFNQTGLKPGEEYIVNVVALKEQARSPPTSASVSTVIDGPTQILVRDVSDTVAFVEWTPPRAKVDFILLKYGLVGGEGGKTTFRLQPPLSQYSVQALRPGSRYEVSISAVRGTNESEASSTQFTTEIDAPKNLRVGSRTATSLDLEWDNSEAEAQEYKVVYSTLAGEQYHEVLVPKGIGPTTKTTLTDLVPGTEYGVGISAVMNSKQSIPATMNARTELDSPRDLMVTASSETSISLIWTKASGPIDHYRITFTPSSGISSEVTVPRDRTSYTLTDLEPGAEYIISITAERGRQQSLESTVDAFTGFRPISHLHFSHVTSSSVNITWSDPSPPADRLILNYSPRDKEEDMLEVLLDATKRHAVLMGLQPATEYIVNLVAVHGTVTSEPIVGSITTGIDPPKNITISNVTKDSLTVSWSSPVAPFDYYRVSYRPTQVGRLDSSVVPNTVTEFAITRLYPATEYEISLNSVRGREESERICTLVHTAMDSPMDLIATNITPTEALLQWKAPMGEVENYVIVLTHFAIAGETILVDGVSEEFQLVDLLPSTHYTVTMYATSGPLMSGTIATNFSTLLDPPDNLTASEVTRQSALISWQPPRAAIENYVLTYKSTDGSRKELIVDAEDTWIRLEGLSENTDYTVLLQAAQEATRSSLTSTVFTTGGRVFSHPQDCAQHLMNGDTLSGVYTIFLNGELSHKLQVYCDMTTDGGGWIVFQRRQNGQTDFFRKWADYRVGFGNLEDEFWLGLDNIHRITAQGRYELRVDMRDGQEAVFAYYDKFAVEDSRSLYKIRIGSYNGTAGDSLSYHQGRPFSTEDRDNDVAVTNCAMSYKGAWWYKNCHRTNLNGKYGESRHSQGINWYHWKGHEFSIPFVEMKMRPYIHRLTAGRKRRALKF
